In PubChem BioAssay AID624291 (National Center for Advancing Translational Sciences (NCATS), 2012):
Out of some 350,000 compounds screened, about 220 (0.063%) were called active. The shares of active, inactive and inconclusive entries below differ from those in the screen. The call rests on the fitted dose curve; in most records, active means well fitted activation curve with a large enough effect; inconclusive means small, poorly fitted or top-dose-only effect; inactive means no such curve, though single readings can be large or run the other way. Potencies of inconclusive entries are doubtful fits and often do not repeat.

experiment: qHTS for Activators of Integrin-Mediated Alleviation for Muscular Dystrophy; settings: alpha7betagal myoblasts, beta-gal FDG fluorescence, 48 h; activation: at 38.3 µM (top of the series); further: nearly all actives have a fitted effect of over 60% in size;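 on activation: 100% = response of the positive control SU9516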
Description: Integrins are a diverse family of transmembrane cell surface receptors that mediate interactions between cells and the extracellular matrix. These heterodimeric proteins are composed of alpha and beta subunits and the a7b1 interacts with laminin in the extracellular matrix and actin of the cell cytoskeleton. Both chains contribute to ligand binding, but the alpha chain mediates the specificity of the interaction. The alpha7beta1 integrin is a major laminin receptor in skeletal, cardiac and vascular smooth muscle. Mutations in the alpha7 integrin gene are responsible for muscular dystrophy in both humans and mice. The alpha7beta1 integrin is also a major modifier of muscle disease progression in various muscle diseases including Duchenne muscular dystrophy, Fukuyama muscular dystrophy and merosin deficient congenital muscular dystrophy type 1A. […] Transcriptional regulation of the alpha7 integrin gene is poorly understood and probably involves multiple transcription factors. The goal of identifying small molecules that enhance alpha7 integrin expression is two-fold: firstly, such molecules would help us gain insight into the complex transcriptional control of alpha7 integrin. It is known that alpha7 integrin expression is tightly controlled during various stages of development, disease and in response to external stimuli. The second goal of the project is to translate the above finding into a therapeutic strategy for muscular dystrophy. […] Thus this project aims to discover small molecule probes that would not only help in gaining a better understanding of the complex regulatory mechanism of alpha7 integrin expression, but also lead to development of pharmacological agents to fight muscular dystrophy. NIH Chemical Genomics Center [NCGC] NIH Molecular Libraries Probe Centers Network [MLPCN] MLPCN Grant: NS058429 Assay Submitter (PI): Dean Burkin, University of Nevada School of Medicine
A total of 250 alpha7betagal+/- myoblasts at passage 13 were dispensed using a mulitdrop from Thermo into black low base tissue culture treated microclear aurora plates in 6 ul media containing DMEM without phenol, 5% FBS, 1x GluMax and 1x Penicillin/Streptomycin. The plates were incubated 16-24 hr at 37C, 5% CO2, 95% humidity covered with low evaporation stainless steel lids from Kalypsys. Compounds were then dispensed using a Kalypsys pintool to deliver 23 nl/well compounds in DMSO (diluted into 6 uL resulting in a 1:260 dilution of compound). The control compound used was the cdk2 inhibitor SU9516 from Tocirs (found in the initial LOPAC screen). The plates were incubated for 48 hours at 37C, 5% CO2, 95% humidity using the same stainless steel lids. After incubation with compound, 5 ul of the media was aspirated using the Kalypsys washer/dispenser and 3 ul of the Mammalian Protein Extraction Reagent (MPER) lysis buffer (Thermo Fisher) was added. The plates were spun at 2000 rpms to remove bubbles and an initial capture was acquired on the Viewlux (Perkin Elmer) with exciation at 480 nm and emission at 540 nm for 25 seconds to omit any auto fluorescent compounds. The plates were then incubated for 10 minutes at room temperature. After incubation, 3 ul of 125 uM Fluorescein di-galactoside (FDG) (Marker Gene Technologies) diluted in PBS with 2 mM MgCl2 and 0.2% betamercaptoethanol (BME) was added, the plates were spun at 2000 rpms and incubated for 30 minutes at room temperature. The plates were again read on the Viewlux with exciation at 480 nm and emission at 540 nm for 25 seconds.
Potency means the concentration at half of the fitted maximal effect.

SMILES	Potency	activation
COc1ccc(C(=O)NCC(=O)n2nc(C)cc2C)cc1OC	inactive	–
CCOc1ccccc1NC1=C(Cl)C(=O)N(c2ccccc2)C1=O	inconclusive: 12.6 µM [activator, single point]	–
COC(=O)/C=C1\SC(=NC(=O)c2cccc(Cl)c2)NC1=O	inconclusive: 3.55 µM [activator, single point]	–
O=c1cc(O)n(-c2ccc(Cl)cc2)c(=S)[nH]1	inactive	–
COc1ccc(-c2cc(C(=O)NCCCN3CCOCC3)on2)cc1OC	inconclusive: 4.47 µM [activator, single point]	–
Cc1onc(-c2ccccc2)c1C(=O)NC1CC1	inconclusive: 7.08 µM [activator, single point]	–
CCOc1ccc2nc(SCC(=O)Nc3cccc(S(=O)(=O)NC4=NCCCCC4)c3)[nH]c2c1	inconclusive: 3.98 µM [activator, single point]	–
COc1ccc(C(C(=O)NC(C)(C)C)N(CCO)C(=O)CCC(=O)Nc2cc(C)on2)cc1 (stereo not drawn)	inconclusive: 3.16 µM [activator, single point]	–
FC(F)Oc1ccc(/C=N/n2c(Cc3ccc(Br)cc3)n[nH]c2=S)cc1	inactive	–
CCC(C)[C@@H]1NC(=O)N(CCCN2CCCC2=O)C1=O (stereo partly drawn)	inconclusive: 3.55 µM [activator, partial curve, poor fit]	–
O=C(Nc1ccc(F)cc1F)Nc1ccccc1C(=O)NCCN1CCNC1=O	inconclusive: 10 µM [activator, single point]	–
S=C(c1ccc(OCc2ccccc2)cc1)N1CCCC1	inconclusive: 5.01 µM [activator, single point]	–
Nc1ncnc2c1cnn2C1CCCCC1	inconclusive: 5.01 µM [activator, single point]	–
CC1CCN(CCCCOc2ccc([N+](=O)[O-])cc2)CC1	inconclusive: 11.2 µM [activator, single point]	–
Cc1ccc(CCNC(=O)C2CCN(S(=O)(=O)c3ccc4c(c3)NC(=O)CO4)CC2)cc1	inconclusive: 5.01 µM [activator, single point]	–
CCOc1cc(S(=O)(=O)N2CCCCC2)ccc1Cl	inconclusive: 10 µM [activator, partial curve, poor fit]	–
CN(c1ccccc1)c1nc(N)c([N+](=O)[O-])c(NCc2ccccc2)n1	inconclusive: 22.4 µM [activator, partial curve, poor fit]	–
COCCn1c(=O)[nH]c(=O)c2c1nc(-c1cc(Br)c3c(c1)OCO3)n2Cc1ccccc1	inactive	–
CCOC(=O)CSC1=C(C#N)C(c2ccco2)C(C(=O)OCc2ccccc2)=C(C)N1 (stereo not drawn)	inconclusive: 1.12 µM [activator, partial curve, poor fit]	–
CCn1c(=O)cc(OCC(=O)NCCCN2CCC(C)CC2)c2ccccc21	inactive	–
O=C(Cn1ncc(Cl)c(Cl)c1=O)N1CCN(S(=O)(=O)c2ccc3ccccc3c2)CC1	inactive	–
CCOc1ccccc1NC(=O)C(NCCN(C)C)c1ccccc1 (stereo not drawn)	inactive	–
COc1ccc(CCN(C)c2ccc(C(N)=O)cc2[N+](=O)[O-])cc1OC	inconclusive: 5.01 µM [activator, single point]	–

SMILES	Potency	activation
Cc1ccc(N=Nc2ccc(O)c(P(=O)(c3ccccc3)c3ccccc3)c2)cc1	inconclusive: 5.01 µM [activator, full curve, poor fit]	–
COC(=O)Cc1c(O)ccn(C2CC2)c1=O	inconclusive: 8.91 µM [activator, partial curve, poor fit]	–
Cc1cccc(C(=O)NCC(=O)OCCOc2ccccc2Cl)c1	inconclusive: 17.8 µM [activator, single point]	–
Cc1c(NC(=O)c2nn(C)c(=O)c3ccccc23)c(=O)n(-c2ccccc2)n1C	inconclusive: 2 µM [activator, full curve, poor fit]	–
Cc1cccc2c1cnn2C(=O)Nc1cc(F)ccc1F	inconclusive: 28.2 µM [activator, single point]	–
CC(=O)N1c2ccc(C)cc2C(c2ccccc2)CC1C (stereo not drawn)	inconclusive: 28.2 µM [activator, single point]	–
Cc1cccc(C(=O)NCC(=O)N2CCCCCCC2)c1	inconclusive: 0.501 µM [activator, full curve, poor fit]	–
Cc1cc(-n2c(C)cc(C(=O)CN3C(=O)C(=O)N(C)C3=O)c2C)no1	inactive	–
COc1ccc(Cn2c(=S)[nH]c3cc(C(=O)NCc4cccnc4)ccc3c2=O)cc1	inconclusive: 2.51 µM [activator, full curve, poor fit]	–
CCN(CC)S(=O)(=O)c1cccc(C(=O)N/N=C/c2ccccc2OCC(=O)O)c1	inconclusive: 10 µM [activator, partial curve]	–
CC(Sc1ccc2ccccc2c1)C(=O)NC(N)=O (stereo not drawn)	inactive	–
CC(C)c1nnc(NC(=O)c2nc(S(=O)(=O)Cc3ccc(F)cc3)ncc2Cl)s1	inactive	–
CCCCCCC(=O)N(O)C1CC(=O)N(c2ccc(Cl)cc2)C1=O (stereo not drawn)	inactive	–
Cc1ccc(CN2CCN(/N=C/c3ccccc3)CC2)cc1	–	inconclusive: 8.53% [activator]
O=C(CCN1CCc2ccccc2C1)Nc1cccc(F)c1	inactive	–
O=C(O)c1[nH]c2ccccc2c1C(c1cc(Br)ccc1O)c1c(C(=O)O)[nH]c2ccccc12	inconclusive: 10 µM [activator, single point]	–
CC(NC(=O)OCc1ccccc1)C(=O)Oc1cc2oc(=O)cc(-c3ccccc3)c2cc1Cl (stereo not drawn)	inconclusive: 31.6 µM [activator, single point]	–
COc1ccc(-c2n[nH]c(=S)n2-c2ccc3c(c2)OCCO3)cc1	inactive	–
CCc1ccc(NC(=O)[C@H](C)NC(=O)C2CCN(C(=O)[C@@H](NC(=O)OC(C)(C)C)C(C)C)CC2)cc1	inconclusive: 2.82 µM [activator, single point]	–
COc1cc(OC)c(/C=N/NC(=O)c2ccncc2)c(OC)c1	inconclusive: 31.6 µM [activator, partial curve, poor fit]	–
CCN1CCc2nc(N)sc2C1	inactive	–
CS(=O)(=O)c1ccc2nc(NC(=O)c3cc([N+](=O)[O-])cc([N+](=O)[O-])c3)sc2c1	inconclusive: 0.447 µM [activator, partial curve, poor fit]	–
COc1ccc2oc(=N)c(C(=O)Nc3ccc(C)cc3)cc2c1	inconclusive: 3.16 µM [activator, partial curve, poor fit]	–

SMILES	Potency	activation
COc1ccc(-n2c3c(c(=O)[nH]c2=O)C(NC(C)=O)(C(F)(F)F)C(=O)N3)cc1 (stereo not drawn)	inconclusive: 11.2 µM [activator, single point]	–
COC(=O)c1ccc(/C=C2\Oc3ccccc3NC2=O)cc1	inactive	–
CC1(C)CC[C@]2(C(=O)O)CC[C@]3(C)C(=CCC4[C@@]5(C)CC[C@H](O)C(C)(C)C5CC[C@]43C)C2C1 (stereo partly drawn)	inactive	–
O=[N+]([O-])c1ccc2[nH]ncc2c1	inconclusive: 1.58 µM [activator, single point]	–
CCN(Cc1ccncc1)Cc1cn[nH]c1-c1cc(OC)c(OC)c(OC)c1	inconclusive: 28.2 µM [activator, single point]	–
O=C(Nc1cccc(S(=O)(=O)N2CCCCC2)c1)C1COc2ccccc2O1 (stereo not drawn)	inactive	–
O=C(c1ccccc1[N+](=O)[O-])N1CCCN(C(=O)c2ccccc2[N+](=O)[O-])CC1	inconclusive: 1.41 µM [activator, partial curve, poor fit]	–
O=C1c2ccccc2-c2nc3ccccc3cc21	inconclusive: 28.2 µM [activator, single point]	–
CCC1=NN(C(=O)c2ccc(Cl)cc2)C(O)(c2ccccc2)C1 (stereo not drawn)	inactive	–
COc1ccc(N2CCN(C(c3cccs3)C(C)NS(C)(=O)=O)CC2)cc1 (stereo not drawn)	inconclusive: 2.24 µM [activator, full curve, poor fit]	–
CCCn1nc(C(=O)Nc2ccc(-n3cnnn3)cc2)c2ccccc2c1=O	inconclusive: 5.01 µM [activator, single point]	–
Cc1cccn2c(/C=N/OCc3cccc(F)c3)c(-c3ccc(Cl)cc3)nc12	inactive	–
O=C(CCCC(=O)NCCc1ccccc1)NCCc1ccccc1	inconclusive: 11.2 µM [activator, partial curve, poor fit]	–
Nc1cc(N)nc(SCC(=O)Nc2ccc3c(c2)OCCCO3)n1	inconclusive: 11.2 µM [activator, partial curve, poor fit]	–
CC(Oc1ccc(Br)cc1)C(=O)N1CCC(C(N)=O)CC1 (stereo not drawn)	inconclusive: 2 µM [activator, full curve, poor fit]	–
CCOC(=O)CSc1nnc2c(n1)C1(C)CCC2C1(C)C (stereo not drawn)	inactive	–
Cc1cc(C)n(S(=O)(=O)/C=C/c2ccccc2)n1	inactive	–
COc1cccc(C(=O)NN2C(=S)N(c3ccccc3)C(=O)C2CC(N)=O)c1 (stereo not drawn)	inconclusive: 7.08 µM [activator, partial curve, poor fit]	–
Cc1nn(CC(=O)N(C)C2(C#N)CCCCC2)c(C)c1[N+](=O)[O-]	inconclusive: 3.55 µM [activator, single point]	–
COCCn1cc(C(=O)c2cc(Br)ccc2O)cc(C#N)c1=O	inactive	–
COc1ccccc1C(=O)N/C(=C\c1cn(S(=O)(=O)N(C)C)c2ccccc12)C(=O)N1CCOCC1	inconclusive: 5.62 µM [activator, single point]	–
COC(=O)CNC(=O)C1CCCN1C(=O)CNC(=O)OCc1ccccc1 (stereo not drawn)	inconclusive: 5.01 µM [activator, single point]	–

16 entries out of the list, ordered by length of the SMILES, smallest number first:
SMILES	Potency	activation
O=C1c2ccccc2-c2nc3ccccc3cc21	inconclusive: 28.2 µM [activator, single point]	–
Cc1cc(C)n(S(=O)(=O)/C=C/c2ccccc2)n1	inactive	–
CCOC(=O)CSc1nnc2c(n1)C1(C)CCC2C1(C)C (stereo not drawn)	inactive	–
COC(=O)c1ccc(/C=C2\Oc3ccccc3NC2=O)cc1	inactive	–
CC(Oc1ccc(Br)cc1)C(=O)N1CCC(C(N)=O)CC1 (stereo not drawn)	inconclusive: 2 µM [activator, full curve, poor fit]	–
Nc1cc(N)nc(SCC(=O)Nc2ccc3c(c2)OCCCO3)n1	inconclusive: 11.2 µM [activator, partial curve, poor fit]	–
CCC1=NN(C(=O)c2ccc(Cl)cc2)C(O)(c2ccccc2)C1 (stereo not drawn)	inactive	–
COC(=O)CNC(=O)C1CCCN1C(=O)CNC(=O)OCc1ccccc1 (stereo not drawn)	inconclusive: 5.01 µM [activator, single point]	–
CCCn1nc(C(=O)Nc2ccc(-n3cnnn3)cc2)c2ccccc2c1=O	inconclusive: 5.01 µM [activator, single point]	–
CCN(Cc1ccncc1)Cc1cn[nH]c1-c1cc(OC)c(OC)c(OC)c1	inconclusive: 28.2 µM [activator, single point]	–
O=C(Nc1cccc(S(=O)(=O)N2CCCCC2)c1)C1COc2ccccc2O1 (stereo not drawn)	inactive	–
Cc1nn(CC(=O)N(C)C2(C#N)CCCCC2)c(C)c1[N+](=O)[O-]	inconclusive: 3.55 µM [activator, single point]	–
COc1ccc(-n2c3c(c(=O)[nH]c2=O)C(NC(C)=O)(C(F)(F)F)C(=O)N3)cc1 (stereo not drawn)	inconclusive: 11.2 µM [activator, single point]	–
O=C(c1ccccc1[N+](=O)[O-])N1CCCN(C(=O)c2ccccc2[N+](=O)[O-])CC1	inconclusive: 1.41 µM [activator, partial curve, poor fit]	–
COc1ccccc1C(=O)N/C(=C\c1cn(S(=O)(=O)N(C)C)c2ccccc12)C(=O)N1CCOCC1	inconclusive: 5.62 µM [activator, single point]	–
CC1(C)CC[C@]2(C(=O)O)CC[C@]3(C)C(=CCC4[C@@]5(C)CC[C@H](O)C(C)(C)C5CC[C@]43C)C2C1 (stereo partly drawn)	inactive	–
